{
  "source": "the supplement of paper PMC9492666",
  "key": {"[1]": {"test_system": "HCC1937", "assay": "relative cell viability, compound + erastin, vs DMSO (fraction of DMSO control); higher = less growth inhibition", "details": "72 h"}, "[2]": {"test_system": "MDA-MB-231", "assay": "relative cell viability, compound + erastin, vs DMSO (fraction of DMSO control); higher = less growth inhibition", "details": "72 h"}},
  "note": "The entries are a selection whose mix differs from that of the whole data set.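 Also: viability read by CCK-8 kit in 96-well plates, part of a combination screen pairing lipid-metabolism-targeting compounds with erastin.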",
  "data": [
    {"smiles": "Cc1c(C(=O)NN2CCCCC2)nn(-c2ccc(Cl)cc2Cl)c1-c1ccc(I)cc1", "note": "+ CCOc1ccccc1-n1c(C(C)N2CCN(C(=O)COc3ccc(Cl)cc3)CC2)nc2ccccc2c1=O [erastin]", "values": [
      {"measurement": "relative cell viability", "setting": "[1]", "result": 0.402},
      {"measurement": "relative cell viability", "setting": "[2]", "result": 0.459}
    ]}
  ]
}
